Assay results: patent US20230398068A1 (priority 2020, published 2023)

Test: Aerosol deposition in Vitrocell inserts (cell free controls)
Conditions: for Mean deposition: 2.5% drug in propylene glycol, cell free inserts

SMILES: CCN(CC)CCCC(C)Nc1ccnc2cc(Cl)ccc12 (stereo not shown) [chloroquine]
- Percent deposition (25 puffs): 0.23%
- Mean deposition (25 puffs): 7.24 µg
- Mean deposition (25 puffs, listed as Chloroquine): 7.238 ± 0.840 µg
- Percent deposition (50 puffs): 0.21%
- Mean deposition (50 puffs): 13.15 µg
- Mean deposition (50 puffs, listed as Chloroquine): 13.148 ± 1.348 µg
- amount deposited (100 puffs, cell free controls): 12.91 µg
